Article PMC10049297
No constants are given. Whether binding was seen depends on the method and setting. Binding seen in cells or lysates may run through a third protein. Some binding calls cover weakened binding; strength is not graded here. Where a sequence is shown, tags or fusion partners need not be part of it. Blank lines part the entries; values can stand above or below the molecule they belong to.

Amino acid sequences for entries named in this document (tags omitted).
UniProt Q86WV6: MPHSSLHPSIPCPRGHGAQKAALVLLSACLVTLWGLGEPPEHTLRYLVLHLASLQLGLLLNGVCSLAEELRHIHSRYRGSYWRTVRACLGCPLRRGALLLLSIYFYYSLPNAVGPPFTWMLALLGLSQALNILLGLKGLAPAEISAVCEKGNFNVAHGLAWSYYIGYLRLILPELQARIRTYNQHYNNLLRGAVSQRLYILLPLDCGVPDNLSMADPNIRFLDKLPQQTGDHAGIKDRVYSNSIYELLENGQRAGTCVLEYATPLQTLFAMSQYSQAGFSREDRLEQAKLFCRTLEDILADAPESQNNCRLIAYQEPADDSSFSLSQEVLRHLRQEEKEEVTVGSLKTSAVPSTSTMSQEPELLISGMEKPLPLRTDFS
UniProt Q8N884: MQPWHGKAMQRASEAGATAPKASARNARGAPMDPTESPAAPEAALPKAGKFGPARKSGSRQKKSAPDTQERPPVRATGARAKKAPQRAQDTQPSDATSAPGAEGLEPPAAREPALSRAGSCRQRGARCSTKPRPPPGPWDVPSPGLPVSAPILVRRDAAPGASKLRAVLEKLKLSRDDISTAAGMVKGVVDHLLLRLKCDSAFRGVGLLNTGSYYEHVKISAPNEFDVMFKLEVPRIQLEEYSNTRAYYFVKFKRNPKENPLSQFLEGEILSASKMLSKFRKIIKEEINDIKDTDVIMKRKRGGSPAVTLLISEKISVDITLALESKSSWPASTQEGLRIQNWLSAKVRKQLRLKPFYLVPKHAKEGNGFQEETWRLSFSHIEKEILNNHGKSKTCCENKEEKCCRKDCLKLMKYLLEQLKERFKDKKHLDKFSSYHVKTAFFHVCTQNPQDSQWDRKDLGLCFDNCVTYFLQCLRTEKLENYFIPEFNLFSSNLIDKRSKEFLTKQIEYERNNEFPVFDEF
UniProt P52630: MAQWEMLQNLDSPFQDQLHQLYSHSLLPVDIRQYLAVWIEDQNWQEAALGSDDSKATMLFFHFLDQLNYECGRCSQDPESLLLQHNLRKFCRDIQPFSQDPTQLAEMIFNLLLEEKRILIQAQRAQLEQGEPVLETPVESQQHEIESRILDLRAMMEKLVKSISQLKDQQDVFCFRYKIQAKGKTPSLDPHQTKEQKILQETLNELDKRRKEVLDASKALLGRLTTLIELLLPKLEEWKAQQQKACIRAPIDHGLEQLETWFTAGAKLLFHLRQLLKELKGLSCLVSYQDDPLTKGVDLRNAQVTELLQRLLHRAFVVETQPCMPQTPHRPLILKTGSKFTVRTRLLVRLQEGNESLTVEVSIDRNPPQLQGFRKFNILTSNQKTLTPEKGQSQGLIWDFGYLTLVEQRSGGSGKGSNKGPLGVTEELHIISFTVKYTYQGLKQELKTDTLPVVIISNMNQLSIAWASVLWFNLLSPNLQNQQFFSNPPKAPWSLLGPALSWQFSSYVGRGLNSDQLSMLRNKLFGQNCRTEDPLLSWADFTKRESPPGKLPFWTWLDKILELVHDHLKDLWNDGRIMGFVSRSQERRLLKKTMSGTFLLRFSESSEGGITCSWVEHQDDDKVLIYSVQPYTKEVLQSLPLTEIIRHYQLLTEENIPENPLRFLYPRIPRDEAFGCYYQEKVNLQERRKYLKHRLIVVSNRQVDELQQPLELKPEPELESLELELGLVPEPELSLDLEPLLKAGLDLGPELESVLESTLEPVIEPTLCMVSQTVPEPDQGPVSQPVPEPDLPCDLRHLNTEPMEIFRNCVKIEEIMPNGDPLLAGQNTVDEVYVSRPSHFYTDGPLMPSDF
UniProt P42224: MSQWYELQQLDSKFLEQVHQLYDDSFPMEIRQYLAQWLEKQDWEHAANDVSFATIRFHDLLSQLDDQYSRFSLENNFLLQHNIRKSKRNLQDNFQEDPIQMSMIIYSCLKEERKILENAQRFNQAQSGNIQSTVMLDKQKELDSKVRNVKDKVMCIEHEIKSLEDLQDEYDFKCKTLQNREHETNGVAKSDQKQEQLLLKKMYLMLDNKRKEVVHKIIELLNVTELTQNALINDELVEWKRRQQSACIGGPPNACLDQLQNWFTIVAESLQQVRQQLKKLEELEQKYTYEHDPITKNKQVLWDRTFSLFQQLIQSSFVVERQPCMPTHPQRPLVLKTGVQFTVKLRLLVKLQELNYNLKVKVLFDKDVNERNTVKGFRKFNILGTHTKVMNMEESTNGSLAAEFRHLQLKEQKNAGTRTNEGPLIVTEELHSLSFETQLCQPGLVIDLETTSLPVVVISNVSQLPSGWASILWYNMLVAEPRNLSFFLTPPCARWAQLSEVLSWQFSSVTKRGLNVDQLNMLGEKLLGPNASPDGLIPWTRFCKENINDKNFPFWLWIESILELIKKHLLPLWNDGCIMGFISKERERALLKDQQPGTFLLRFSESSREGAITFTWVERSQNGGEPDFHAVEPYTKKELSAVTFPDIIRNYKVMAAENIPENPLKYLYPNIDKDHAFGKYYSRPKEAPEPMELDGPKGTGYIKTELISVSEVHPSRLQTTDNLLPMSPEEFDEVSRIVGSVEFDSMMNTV

Legend:
HA-SerpinA5 (human) = target: T1, HA-SerpinA5 (human) (UniProt P05154); assay: co-IP; HEK293T cells transfected with HA-SerpinA5 or empty vector for 36 h; lysates immunoprecipitated with anti-HA tag antibody; blots with antibodies against endogenous STAT1, STAT2, IRF9; wash buffer 50 mM Tris pH 7.4, 500 mM NaCl, 0.1% NP-40, 1 mM EDTA
T1 sequence: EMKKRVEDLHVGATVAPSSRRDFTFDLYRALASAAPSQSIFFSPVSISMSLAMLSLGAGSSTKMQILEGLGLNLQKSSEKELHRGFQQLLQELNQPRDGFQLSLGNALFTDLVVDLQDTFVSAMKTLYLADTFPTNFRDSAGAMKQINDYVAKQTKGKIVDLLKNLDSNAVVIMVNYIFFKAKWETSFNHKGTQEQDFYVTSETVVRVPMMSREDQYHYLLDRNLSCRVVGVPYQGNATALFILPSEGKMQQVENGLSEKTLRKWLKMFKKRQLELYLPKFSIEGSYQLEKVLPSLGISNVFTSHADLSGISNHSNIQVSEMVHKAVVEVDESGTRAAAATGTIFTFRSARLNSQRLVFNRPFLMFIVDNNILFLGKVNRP

HA-tagged IRF3 = target: T2, HA-tagged IRF3 (UniProt Q14653); assay: co-IP; HEK-293T cells co-transfected with FLAG-SerpinA5 and HA-tagged cGAS, STING, TBK1, IRF3 or IRF7 for 36 h; lysates (NP40 lysis buffer) immunoprecipitated with anti-HA antibody, Western blot; wash buffer 50 mM Tris pH 7.4, 500 mM NaCl, 0.1% NP-40, 1 mM EDTA
T2 sequence: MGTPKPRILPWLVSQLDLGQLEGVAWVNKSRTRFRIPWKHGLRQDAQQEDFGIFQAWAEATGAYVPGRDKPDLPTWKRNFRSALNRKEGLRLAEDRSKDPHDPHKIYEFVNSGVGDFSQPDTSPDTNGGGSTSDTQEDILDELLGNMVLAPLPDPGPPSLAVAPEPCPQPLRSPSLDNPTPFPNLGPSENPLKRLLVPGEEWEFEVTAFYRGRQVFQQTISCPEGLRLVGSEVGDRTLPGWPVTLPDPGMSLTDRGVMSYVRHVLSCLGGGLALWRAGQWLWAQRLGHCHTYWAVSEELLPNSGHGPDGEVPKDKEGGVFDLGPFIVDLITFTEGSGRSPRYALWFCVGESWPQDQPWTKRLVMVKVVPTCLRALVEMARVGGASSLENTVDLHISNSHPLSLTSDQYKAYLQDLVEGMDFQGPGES

HA-tagged IRF7 = target: T3, HA-tagged IRF7 (UniProt Q92985); assay: as above
T3 sequence: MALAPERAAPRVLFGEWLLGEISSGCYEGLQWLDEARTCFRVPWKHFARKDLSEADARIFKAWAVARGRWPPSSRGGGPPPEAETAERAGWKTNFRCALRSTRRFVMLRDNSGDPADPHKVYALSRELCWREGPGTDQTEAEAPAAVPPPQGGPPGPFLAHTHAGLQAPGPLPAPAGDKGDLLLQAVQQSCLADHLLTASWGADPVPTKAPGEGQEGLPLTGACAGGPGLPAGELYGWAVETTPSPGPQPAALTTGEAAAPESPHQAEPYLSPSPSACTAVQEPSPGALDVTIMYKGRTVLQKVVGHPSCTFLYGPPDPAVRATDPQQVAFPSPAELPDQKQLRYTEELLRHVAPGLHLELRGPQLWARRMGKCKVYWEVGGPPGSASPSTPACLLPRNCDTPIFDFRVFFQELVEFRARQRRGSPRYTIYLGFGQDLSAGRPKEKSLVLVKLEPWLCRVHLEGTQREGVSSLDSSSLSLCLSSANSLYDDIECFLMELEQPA

HA-tagged TBK1 = target: T4, HA-tagged TBK1 (UniProt Q9UHD2); assay: as above
T4 sequence: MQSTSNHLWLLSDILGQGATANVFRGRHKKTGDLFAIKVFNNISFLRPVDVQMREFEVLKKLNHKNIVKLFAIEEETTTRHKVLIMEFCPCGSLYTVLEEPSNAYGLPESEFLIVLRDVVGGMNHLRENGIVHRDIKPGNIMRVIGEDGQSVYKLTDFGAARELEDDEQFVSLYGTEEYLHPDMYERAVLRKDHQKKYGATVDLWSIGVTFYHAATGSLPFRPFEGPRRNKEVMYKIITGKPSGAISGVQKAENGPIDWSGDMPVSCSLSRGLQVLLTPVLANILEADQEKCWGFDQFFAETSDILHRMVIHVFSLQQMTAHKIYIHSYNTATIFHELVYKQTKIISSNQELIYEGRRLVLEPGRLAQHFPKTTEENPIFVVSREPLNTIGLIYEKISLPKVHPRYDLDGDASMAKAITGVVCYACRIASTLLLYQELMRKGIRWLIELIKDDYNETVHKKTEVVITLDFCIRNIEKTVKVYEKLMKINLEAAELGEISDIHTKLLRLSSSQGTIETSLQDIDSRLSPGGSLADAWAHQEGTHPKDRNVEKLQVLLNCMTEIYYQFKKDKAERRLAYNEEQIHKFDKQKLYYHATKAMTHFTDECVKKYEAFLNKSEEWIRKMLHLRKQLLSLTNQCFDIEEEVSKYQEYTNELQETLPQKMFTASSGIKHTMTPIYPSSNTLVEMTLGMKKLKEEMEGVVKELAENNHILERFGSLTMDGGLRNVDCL

HA-tagged STING = HA-tagged STING (UniProt Q86WV6); assay: as above
HA-tagged cGAS = HA-tagged cGAS (UniProt Q8N884); assay: as above

- binding (HA-SerpinA5 (human)): no binding
Molecule: STAT2 (from UniProt P52630 1-851)

- binding (HA-SerpinA5 (human)): binds
Molecule: STAT1 (from UniProt P42224 1-750)

- binding (HA-SerpinA5 (human)): no binding
B1: IRF9 (protein, UniProt Q00978 1-393)
chain: MASGRARCTRKLRNWVVEQVESGQFPGVCWDDTAKTMFRIPWKHAGKQDFREDQDAAFFKAWAIFKGKYKEGDTGGPAVWKTRLRCALNKSSEFKEVPERGRMDVAEPYKVYQLLPPGIVSGQPGTQKVPSKRQHSSVSSERKEEEDAMQNCTLSPSVLQDSLNNEEEGASGGAVHSDIGSSSSSSSPEPQEVTDTTEAPFQGDQRSLEFLLPPEPDYSLLLTFIYNGRVVGEAQVQSLDCRLVAEPSGSESSMEQVLFPKPGPLEPTQRLLSQLERGILVASNPRGLFVQRLCPIPISWNAPQAPPGPGPHLLPSNECVELFRTAYFCRDLVRYFQGLGPPPKFQVTLNFWEESHGSSHTPQNLITVKMEQAFARYLLEQTPEQQAAILSLV

- binding (HA-tagged IRF3): no binding
- binding (HA-tagged IRF7): no binding
- binding (HA-tagged TBK1): no binding
- binding (HA-tagged STING): no binding
- binding (HA-tagged cGAS): no binding
B2: FLAG-SerpinA5 (human serpin peptidase inhibitor clade A member 5) (protein, UniProt P05154 26-406)
chain: T1 sequence
